This is an account of results in paper doi:10.1101/2022.03.27.486008.

Sequences of proteins named here, by UniProt entry; tags and fusion partners are left off.
UniProt Q39026: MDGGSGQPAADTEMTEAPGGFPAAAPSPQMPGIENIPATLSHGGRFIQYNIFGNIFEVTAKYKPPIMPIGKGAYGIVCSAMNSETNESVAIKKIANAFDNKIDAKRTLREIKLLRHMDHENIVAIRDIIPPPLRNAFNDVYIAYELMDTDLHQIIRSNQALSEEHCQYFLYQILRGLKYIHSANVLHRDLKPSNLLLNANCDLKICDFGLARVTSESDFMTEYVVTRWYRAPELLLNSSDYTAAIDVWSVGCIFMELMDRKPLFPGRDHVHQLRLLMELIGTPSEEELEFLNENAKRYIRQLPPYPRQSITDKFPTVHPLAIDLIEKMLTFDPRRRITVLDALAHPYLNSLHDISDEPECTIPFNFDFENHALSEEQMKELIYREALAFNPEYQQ

Experiment [1] has as its target T1, MKK3-nYFP (Arabidopsis thaliana) (UniProt O80396).
T1 sequence: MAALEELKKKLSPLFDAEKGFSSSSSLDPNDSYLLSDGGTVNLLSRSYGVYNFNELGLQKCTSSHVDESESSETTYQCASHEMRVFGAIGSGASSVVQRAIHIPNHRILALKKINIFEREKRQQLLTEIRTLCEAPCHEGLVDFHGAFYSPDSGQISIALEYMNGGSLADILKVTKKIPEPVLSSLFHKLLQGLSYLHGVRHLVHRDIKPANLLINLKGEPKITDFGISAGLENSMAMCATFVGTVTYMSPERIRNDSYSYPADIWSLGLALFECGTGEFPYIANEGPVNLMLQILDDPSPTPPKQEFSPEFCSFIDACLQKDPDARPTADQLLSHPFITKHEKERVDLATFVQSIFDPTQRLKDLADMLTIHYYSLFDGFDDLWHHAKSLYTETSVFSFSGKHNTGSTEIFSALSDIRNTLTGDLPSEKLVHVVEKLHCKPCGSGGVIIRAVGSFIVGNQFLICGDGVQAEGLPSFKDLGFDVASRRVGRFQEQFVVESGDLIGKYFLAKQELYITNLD
Nature of the experiment: split reporter.

For experiment [2], the target named is T2, MKK3 fused to the GAL4 DNA-binding domain (BD) (Arabidopsis thaliana) (UniProt O80396).
T2 sequence: T1 sequence
As to the kind of experiment: two-hybrid.

In experiment [3] the target is T3, MKKK20-cYFP (Arabidopsis thaliana) (UniProt Q9SND6).
T3 sequence: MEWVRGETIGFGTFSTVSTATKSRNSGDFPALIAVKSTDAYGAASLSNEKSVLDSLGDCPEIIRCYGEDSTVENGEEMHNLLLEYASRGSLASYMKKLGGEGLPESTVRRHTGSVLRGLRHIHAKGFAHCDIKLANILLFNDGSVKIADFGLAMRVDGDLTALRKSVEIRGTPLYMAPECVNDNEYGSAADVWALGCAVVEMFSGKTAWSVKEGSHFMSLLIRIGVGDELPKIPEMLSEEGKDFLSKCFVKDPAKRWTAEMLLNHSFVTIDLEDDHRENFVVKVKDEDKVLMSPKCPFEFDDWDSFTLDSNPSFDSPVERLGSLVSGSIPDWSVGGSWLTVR
As to the kind of experiment: split reporter.

For experiment [4], the target named is T4, MKKK20 fused to the GAL4 DNA-binding domain (BD-MKKK20) (Arabidopsis thaliana) (UniProt Q9SND6).
T4 sequence: T3 sequence
As to the kind of experiment: two-hybrid.

No constants are given. Whether binding was seen depends on the method and setting. For some assays here: Binding seen in cells or lysates may run through a third protein. Some results given as binding are weak or reduced against the parent protein; the word gives no strength. Tags and fused reporters may be left off the sequences shown.

As to “MPK6 for BiFC with MKK3-nYFP (from UniProt Q39026 1-395)”, in experiment [1], the binding entry is given as “binds”. In the case of “MPK6 fused to the GAL4-activating domain (AD) (from UniProt Q39026 1-395)”, the binding result in experiment [2] is given as “binds”.

Turning to “CaM1, nYFP-tagged (from UniProt P0DH95 1-149)”, the binding entry in experiment [3] is “binds”. Consider “CaM4, nYFP-tagged (from UniProt P0DH96 1-149)”, for which the binding result in experiment [3] was “binds”. For “CaM4 fused to the GAL4-activating domain (from UniProt P0DH96 1-149)”, in experiment [4], the binding entry is on record as “binds”. On the same count and under the same terms, the value for “CaM6 fused to the GAL4-activating domain (from UniProt Q03509 1-149)” was “binds”.

“CaM6, nYFP-tagged (from UniProt Q03509 1-149)”: the binding result in experiment [3] is given as “binds”. For “CaM1 fused to the GAL4-activating domain (from UniProt P0DH95 1-149)”, the binding entry in experiment [4] is reported as “binds”.
